This note sets out measurements from paper doi:10.1101/2022.09.10.507283.

Sequences of proteins named here, by UniProt entry; tags and fusion partners are left off. A change or cut given only in a name is not applied to a line headed by its entry.
UniProt Q07157: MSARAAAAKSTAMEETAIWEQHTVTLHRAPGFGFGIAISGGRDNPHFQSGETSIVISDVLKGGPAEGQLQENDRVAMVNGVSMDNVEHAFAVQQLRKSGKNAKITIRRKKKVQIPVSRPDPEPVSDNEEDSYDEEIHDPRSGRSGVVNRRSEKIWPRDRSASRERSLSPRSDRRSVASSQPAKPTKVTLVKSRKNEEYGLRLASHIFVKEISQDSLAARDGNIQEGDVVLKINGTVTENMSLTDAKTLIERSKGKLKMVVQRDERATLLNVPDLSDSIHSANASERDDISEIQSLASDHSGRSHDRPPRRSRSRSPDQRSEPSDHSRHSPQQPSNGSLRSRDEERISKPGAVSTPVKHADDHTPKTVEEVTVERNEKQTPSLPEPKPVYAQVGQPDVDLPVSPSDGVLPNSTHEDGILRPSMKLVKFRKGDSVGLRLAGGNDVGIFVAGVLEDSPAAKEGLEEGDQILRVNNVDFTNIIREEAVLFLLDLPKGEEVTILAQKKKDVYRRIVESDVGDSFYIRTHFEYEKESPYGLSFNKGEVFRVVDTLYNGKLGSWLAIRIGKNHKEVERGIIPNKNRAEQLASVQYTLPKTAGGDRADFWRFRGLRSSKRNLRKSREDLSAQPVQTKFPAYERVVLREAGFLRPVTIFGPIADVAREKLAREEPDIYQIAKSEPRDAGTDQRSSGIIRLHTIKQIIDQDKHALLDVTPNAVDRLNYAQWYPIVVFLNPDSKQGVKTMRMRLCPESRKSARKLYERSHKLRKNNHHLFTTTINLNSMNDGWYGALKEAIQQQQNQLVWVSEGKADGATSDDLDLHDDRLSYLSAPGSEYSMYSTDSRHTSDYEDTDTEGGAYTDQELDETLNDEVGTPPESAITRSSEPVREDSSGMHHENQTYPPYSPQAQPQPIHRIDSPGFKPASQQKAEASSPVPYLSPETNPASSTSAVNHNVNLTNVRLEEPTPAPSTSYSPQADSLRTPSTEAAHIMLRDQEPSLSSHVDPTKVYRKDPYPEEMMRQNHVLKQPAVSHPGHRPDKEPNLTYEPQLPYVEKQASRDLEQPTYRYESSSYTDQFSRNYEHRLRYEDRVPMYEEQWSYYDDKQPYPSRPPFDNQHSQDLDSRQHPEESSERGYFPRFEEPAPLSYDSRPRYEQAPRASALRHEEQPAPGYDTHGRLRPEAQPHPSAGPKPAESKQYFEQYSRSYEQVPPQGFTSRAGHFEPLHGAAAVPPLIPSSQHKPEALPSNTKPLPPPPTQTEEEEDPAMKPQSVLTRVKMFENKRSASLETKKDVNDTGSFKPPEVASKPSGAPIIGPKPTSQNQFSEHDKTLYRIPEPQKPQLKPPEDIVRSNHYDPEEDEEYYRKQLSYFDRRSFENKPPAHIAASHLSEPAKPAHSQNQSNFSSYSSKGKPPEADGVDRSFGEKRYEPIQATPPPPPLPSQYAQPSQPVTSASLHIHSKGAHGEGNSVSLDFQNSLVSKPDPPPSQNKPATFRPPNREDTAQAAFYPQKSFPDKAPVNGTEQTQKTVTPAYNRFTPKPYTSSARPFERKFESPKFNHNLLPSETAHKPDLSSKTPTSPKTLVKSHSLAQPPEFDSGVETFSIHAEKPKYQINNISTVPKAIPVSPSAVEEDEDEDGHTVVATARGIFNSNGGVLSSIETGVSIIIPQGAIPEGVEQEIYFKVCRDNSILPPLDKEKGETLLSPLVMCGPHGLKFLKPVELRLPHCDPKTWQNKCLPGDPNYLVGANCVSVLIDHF
UniProt P61586: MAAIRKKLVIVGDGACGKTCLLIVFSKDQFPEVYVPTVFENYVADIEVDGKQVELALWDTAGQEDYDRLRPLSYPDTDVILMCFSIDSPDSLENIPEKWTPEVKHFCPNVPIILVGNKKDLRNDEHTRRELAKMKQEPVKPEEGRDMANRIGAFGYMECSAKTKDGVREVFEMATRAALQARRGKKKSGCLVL

Test [1] addresses ZO-1 (endogenous, HUVEC) (human (endogenous in HUVEC)) (UniProt Q07157). In words: co-IP.
The target in test [2] is T1, VE-cadherin (endogenous, HUVEC) (human (endogenous in HUVEC)) (UniProt P33151).
T1 sequence: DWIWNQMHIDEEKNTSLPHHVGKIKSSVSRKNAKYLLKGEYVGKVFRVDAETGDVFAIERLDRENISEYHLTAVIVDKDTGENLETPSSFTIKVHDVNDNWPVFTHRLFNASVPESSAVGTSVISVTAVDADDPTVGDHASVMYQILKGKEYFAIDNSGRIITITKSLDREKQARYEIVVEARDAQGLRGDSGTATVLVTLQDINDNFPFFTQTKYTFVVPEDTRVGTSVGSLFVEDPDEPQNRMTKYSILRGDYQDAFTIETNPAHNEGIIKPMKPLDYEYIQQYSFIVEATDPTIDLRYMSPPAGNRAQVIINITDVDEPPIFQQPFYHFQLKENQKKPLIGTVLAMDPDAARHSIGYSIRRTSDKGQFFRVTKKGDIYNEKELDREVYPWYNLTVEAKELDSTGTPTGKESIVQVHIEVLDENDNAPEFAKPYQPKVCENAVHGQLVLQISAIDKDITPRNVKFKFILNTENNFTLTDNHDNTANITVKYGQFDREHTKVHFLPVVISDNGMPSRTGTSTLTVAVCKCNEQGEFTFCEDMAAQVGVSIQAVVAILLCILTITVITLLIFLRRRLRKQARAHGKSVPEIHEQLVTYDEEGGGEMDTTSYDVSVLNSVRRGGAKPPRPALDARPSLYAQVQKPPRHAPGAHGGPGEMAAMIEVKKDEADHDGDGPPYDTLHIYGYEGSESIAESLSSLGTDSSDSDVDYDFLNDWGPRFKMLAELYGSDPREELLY
Nature of the test: co-IP.

Test [3] deals with GST-RhoA^G17A (nucleotide-free RhoA mutant) (UniProt P61586). In words: pull-down.

These are yes or no findings as the source states them, for the method shown. In cells and extracts the contact can be indirect. For part of these data: A result given as binding can be weak or reduced; the word gives no strength.

On to “ARHGEF18 (endogenous, HUVEC) (from UniProt Q6ZSZ5-4)”, for which the figures for the binding entry in test [1], in test [2] and in test [3] were “binds”, “no binding” and “binds”, respectively.
